Taken from: PubChem BioAssay AID1224826 (NIAID, 2016)

- Purpose: 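Genes that change LPS-induced Tnf promoter activity in mouse macrophages when knocked down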 (primary screen)
- Cell system: RAW264.7 G9 macrophages from mouse bearing reporters for p65 (GFP) and the Tnf promoter (mCherry)
- Reagents: siRNA pool against mouse genes, 100 nM
- Timing: 16 h of LPS stimulation, after 2 days of siRNA transfection
- Treatment: bacterial lipopolysaccharide (Salmonella minnesota R595), 10 ng/ml
- Measured: 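Imaged Tnf reporter mCherry in nuclei, minus background, normalised per plate to the median and expressed as robust z-scores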
- Direction: Tnf reporter robust z-score: higher = stronger Tnf promoter reporter signal after LPS; Tnf reporter intensity: higher = stronger Tnf promoter reporter signal
- Call rule: 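Called active when robust z-score is at most -1.3, matching the median of the Tlr4 knock-down control, or over 3; control wells and wells with under 50 cells never active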
- Calls: active = Tnf reporter clearly lowered or raised; inactive = no clear change in Tnf reporter
Shown is one part, drawn at random, of about 17,000 reagents tested. In the full data, about 1,110 (6.6%) got an active call. 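Active means lowered or raised reporter signal; replicate intensities are raw and not normalised per plate.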 The numbers tell different reagents against one gene apart. No sequences are given here.

| gene symbol | reagent no. | Tnf reporter robust z-score | fewer than 50 cells in well | Tnf reporter intensity, replicate 1 | Tnf reporter intensity, replicate 2 | Outcome |
| --- | --- | --- | --- | --- | --- | --- |
| St6galnac3 | 1 | – | fewer than 50 cells per well; well left out of calls | 51.8 | 41.1 | inactive |
| Klk10 | 1 | -0.03 | enough cells in well | 94.4 | 61.3 | inactive |
| Hivep1 | 1 | 1.41 | enough cells in well | 371 | 260 | inactive |
| Il13 | 1 | -0.57 | enough cells in well | 194 | 150 | inactive |
| Grk6 | 1 | 0.58 | enough cells in well | 292 | 197 | inactive |
| Rdh10 | 1 | 0.61 | enough cells in well | 158 | 151 | inactive |
| Nelfb | 1 | 1.63 | enough cells in well | 266 | 236 | inactive |
| Hint1 | 1 | 0.11 | enough cells in well | 239 | 203 | inactive |
| Rab5a | 1 | -0.61 | enough cells in well | 256 | 156 | inactive |
| Zcchc7 | 1 | 0.96 | enough cells in well | 265 | 237 | inactive |
| Zcchc7 | 2 | -0.71 | enough cells in well | 159 | 35 | inactive |
| Anxa10 | 1 | 0.95 | enough cells in well | 231 | 213 | inactive |
| Nsun4 | 1 | 0.95 | enough cells in well | 238 | 121 | inactive |
| Zfp710 | 1 | -0.75 | enough cells in well | 132 | 53.7 | inactive |
| AI315068 | 1 | -1.02 | enough cells in well | 88.4 | 168 | inactive |
| Noxo1 | 1 | 1.73 | enough cells in well | 372 | 177 | inactive |
| Daam2 | 1 | 0.1 | enough cells in well | 238 | 238 | inactive |
| Akr1c13 | 1 | -0.13 | enough cells in well | 200 | 177 | inactive |
| Vmn1r199 | 1 | 0.3 | enough cells in well | 130 | 60.3 | inactive |
| Sh2b2 | 1 | -1.5 | enough cells in well | 67.8 | 82 | active |
| Aqr | 1 | – | fewer than 50 cells per well; well left out of calls | 179 | 182 | inactive |
| Phxr5 | 1 | 0.39 | enough cells in well | 141 | 175 | inactive |
| Slc35a1 | 1 | – | fewer than 50 cells per well; well left out of calls | 35 | 30.9 | inactive |
| Pabir3 | 1 | 0.53 | enough cells in well | 257 | 79.1 | inactive |
| Cyp3a13 | 1 | 0.49 | enough cells in well | 181 | 242 | inactive |
| Chat | 1 | -0.63 | enough cells in well | 192 | 206 | inactive |
| Ccnd1 | 1 | -0.43 | enough cells in well | 232 | 157 | inactive |
| Znrd2 | 1 | -0.65 | enough cells in well | 200 | 184 | inactive |
| Cfap184 | 1 | 0.44 | enough cells in well | 192 | 80.4 | inactive |
| Chrne | 1 | -0.4 | enough cells in well | 236 | 158 | inactive |
| Abca8a | 1 | -0.88 | enough cells in well | 154 | 123 | inactive |
| Or7g27 | 1 | -0.83 | enough cells in well | 56.4 | 103 | inactive |

Records above called active (1):
| gene symbol | reagent no. | Tnf reporter robust z-score | fewer than 50 cells in well | Tnf reporter intensity, replicate 1 | Tnf reporter intensity, replicate 2 | Outcome |
| --- | --- | --- | --- | --- | --- | --- |
| Sh2b2 | 1 | -1.5 | enough cells in well | 67.8 | 82 | active |

The results go on.
| gene symbol | reagent no. | Tnf reporter robust z-score | fewer than 50 cells in well | Tnf reporter intensity, replicate 1 | Tnf reporter intensity, replicate 2 | Outcome |
| --- | --- | --- | --- | --- | --- | --- |
| Prl3c1 | 1 | -0.24 | enough cells in well | 166 | 71.9 | inactive |
| Gpr19 | 1 | -0.15 | enough cells in well | 178 | 326 | inactive |
| Arhgap10 | 1 | 1.43 | enough cells in well | 272 | 226 | inactive |
| Esyt2 | 1 | -0.06 | enough cells in well | 103 | 173 | inactive |
| Cep72 | 1 | -0.73 | enough cells in well | 140 | 104 | inactive |
| Myo7b | 1 | -0.34 | enough cells in well | 210 | 88.1 | inactive |
| Scn1b | 1 | 0.56 | enough cells in well | 335 | 252 | inactive |
| Xrcc5 | 1 | 0.07 | enough cells in well | 249 | 219 | inactive |
| Rpl29 | 1 | -0.24 | enough cells in well | 123 | 77.5 | inactive |
| A330035P11Rik | 1 | -0.87 | enough cells in well | 176 | 113 | inactive |
| Prune1 | 1 | -0.1 | enough cells in well | 194 | 161 | inactive |
| Fgf21 | 1 | -1.18 | enough cells in well | 137 | 158 | inactive |
| Serpina6 | 1 | -0.55 | enough cells in well | 210 | 190 | inactive |
| Gna14 | 1 | 0.05 | enough cells in well | 208 | 320 | inactive |
| Zfp593 | 1 | -0.08 | enough cells in well | 169 | 71 | inactive |
| Ivl | 1 | 0.2 | enough cells in well | 173 | 162 | inactive |
| Mthfs | 1 | -0.92 | enough cells in well | 178 | 60.8 | inactive |
| Lck | 1 | -0.41 | enough cells in well | 164 | 143 | inactive |
| Nedd4l | 1 | 0.71 | enough cells in well | 352 | 234 | inactive |
| Fitm2 | 1 | 3.34 | enough cells in well | 440 | 311 | active |
| Pkn3 | 1 | 0.69 | enough cells in well | 280 | 163 | inactive |
| Or1e19 | 1 | -0.4 | enough cells in well | 154 | 106 | inactive |
| Capzb | 1 | – | fewer than 50 cells per well; well left out of calls | 137 | 176 | inactive |
| Pnrc1 | 1 | 0.65 | enough cells in well | 309 | 226 | inactive |
| Lama4 | 1 | -0.51 | enough cells in well | 197 | 125 | inactive |
| Csnk1g2 | 1 | -0.48 | enough cells in well | 167 | 150 | inactive |
